Measured values: PMC11996887
These are yes or no findings as the source states them, for the method shown. For part of these data: Binding seen in cells or lysates may run through a third protein. Some binding calls cover weakened binding; strength is not graded here.

Legend:
[1] = biological target: T1, Peptidoglycan recognition protein 2 (PGLYRP2), endogenous in human liver tissue (human (endogenous in liver tissue)) (UniProt Q96PD5); experiment: proximity ligation; Duolink PLA on HBV+ and HBV- human liver tissue with mouse anti-HBc and rabbit anti-PGLYRP2 antibodies
T1 sequence: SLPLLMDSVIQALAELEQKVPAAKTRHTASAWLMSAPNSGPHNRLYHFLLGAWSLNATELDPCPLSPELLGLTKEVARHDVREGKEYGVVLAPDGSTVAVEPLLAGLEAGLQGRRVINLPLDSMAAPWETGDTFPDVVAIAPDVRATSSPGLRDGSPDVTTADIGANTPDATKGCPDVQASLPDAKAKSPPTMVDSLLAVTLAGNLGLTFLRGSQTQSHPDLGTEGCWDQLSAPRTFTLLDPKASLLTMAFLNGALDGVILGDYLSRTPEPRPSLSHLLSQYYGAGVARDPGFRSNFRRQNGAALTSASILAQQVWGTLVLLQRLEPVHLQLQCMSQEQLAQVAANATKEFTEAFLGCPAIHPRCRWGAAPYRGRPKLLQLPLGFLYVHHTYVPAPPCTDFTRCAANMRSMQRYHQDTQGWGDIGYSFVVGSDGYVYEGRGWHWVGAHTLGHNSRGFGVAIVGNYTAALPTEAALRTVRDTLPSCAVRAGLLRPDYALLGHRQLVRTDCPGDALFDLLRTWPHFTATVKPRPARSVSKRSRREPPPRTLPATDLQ

[2] = biological target: T1, Peptidoglycan recognition protein 2 (PGLYRP2), endogenous in human liver tissue (human (endogenous in liver tissue)); experiment: co-IP; HBV+ or HBV- human liver tissue lysates, immunoprecipitated with anti-PGLYRP2 and agarose beads at 4 C overnight, blotted
[3] = biological target: T2, PGLYRP2, full-length expression construct (human) (UniProt Q96PD5); experiment: pull-down; FLAG pull-down of HBV proteins with PGLYRP2 (full-length and truncated constructs); details only in Supplemental Figure 4B-D
T2 sequence: T1 sequence

[4] = biological target: T2, PGLYRP2, full-length expression construct (human); experiment: pull-down; culture supernatants of HEK293 cells coexpressing HBc and PGLYRP2; FLAG pull-down and ultracentrifugation, elution with 3xFLAG peptides, Western blot
[5] = biological target: T2, PGLYRP2, full-length expression construct (human); experiment: co-IP; PGLYRP2 construct cotransfected with Con vector, HBc WT, HBc-C61G or HBc-Y132A into HEK293 cells; lysates after 48 hours, co-IP with anti-FLAG antibody, blotted
[6] = biological target: T2, PGLYRP2, full-length expression construct (human); experiment: SEC; size-exclusion chromatography of the FLAG-eluted extracellular PGLYRP2/HBV capsid complex (formed in coexpressing HEK293 cells) against HBV capsid alone; fractions of the peaks analysed

Measured: binding

HBV core protein (HBc) / HBV capsid in HBV-infected human liver tissue (from UniProt P03146 1-183)
binds: [1] | [2]

HBV core protein, wild type (WT HBc) (from UniProt P03146 1-183)
binds: [3] | [4] | [5] | [6]
